Article PMC5999396
No constants are given. Whether binding was seen depends on the method and setting. Binding seen in cells or lysates may run through a third protein. Some binding calls cover weakened binding; strength is not graded here.

The chains behind the UniProt entries cited, without tags or fusion partners. Where a name states a change or a piece, a line headed by the entry shows the natural chain unless it says otherwise.
UniProt P04608: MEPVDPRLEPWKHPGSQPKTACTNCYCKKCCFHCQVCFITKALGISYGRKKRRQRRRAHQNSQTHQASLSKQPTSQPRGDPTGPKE
UniProt O94992: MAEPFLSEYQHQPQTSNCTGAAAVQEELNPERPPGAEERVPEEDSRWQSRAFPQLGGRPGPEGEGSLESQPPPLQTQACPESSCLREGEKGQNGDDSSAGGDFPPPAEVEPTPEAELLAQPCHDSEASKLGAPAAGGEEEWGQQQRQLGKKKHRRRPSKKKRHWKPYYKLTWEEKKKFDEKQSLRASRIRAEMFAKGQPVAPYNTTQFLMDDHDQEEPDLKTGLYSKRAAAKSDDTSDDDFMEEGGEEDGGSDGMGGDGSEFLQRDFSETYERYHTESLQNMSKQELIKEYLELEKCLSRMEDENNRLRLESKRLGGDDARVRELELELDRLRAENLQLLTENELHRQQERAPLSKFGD
UniProt O60563: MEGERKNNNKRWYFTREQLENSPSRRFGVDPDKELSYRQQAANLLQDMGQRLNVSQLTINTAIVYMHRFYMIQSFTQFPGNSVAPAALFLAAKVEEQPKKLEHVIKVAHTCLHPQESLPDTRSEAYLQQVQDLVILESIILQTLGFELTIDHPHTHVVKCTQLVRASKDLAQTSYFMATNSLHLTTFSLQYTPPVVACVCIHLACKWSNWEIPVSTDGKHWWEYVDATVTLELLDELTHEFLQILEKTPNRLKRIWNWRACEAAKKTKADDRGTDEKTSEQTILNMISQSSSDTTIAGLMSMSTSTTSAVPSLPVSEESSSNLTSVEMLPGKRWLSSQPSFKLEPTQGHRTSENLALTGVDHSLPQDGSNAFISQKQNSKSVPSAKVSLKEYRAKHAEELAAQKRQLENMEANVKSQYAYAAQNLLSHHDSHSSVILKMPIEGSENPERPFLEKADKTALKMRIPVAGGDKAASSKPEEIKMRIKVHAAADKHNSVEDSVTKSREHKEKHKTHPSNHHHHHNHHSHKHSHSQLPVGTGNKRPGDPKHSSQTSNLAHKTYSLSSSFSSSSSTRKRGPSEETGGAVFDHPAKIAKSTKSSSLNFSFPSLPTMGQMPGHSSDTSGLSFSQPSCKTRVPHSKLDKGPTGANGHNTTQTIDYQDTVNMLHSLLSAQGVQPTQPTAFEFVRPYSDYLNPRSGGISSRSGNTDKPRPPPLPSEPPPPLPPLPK
UniProt Q9C0C9: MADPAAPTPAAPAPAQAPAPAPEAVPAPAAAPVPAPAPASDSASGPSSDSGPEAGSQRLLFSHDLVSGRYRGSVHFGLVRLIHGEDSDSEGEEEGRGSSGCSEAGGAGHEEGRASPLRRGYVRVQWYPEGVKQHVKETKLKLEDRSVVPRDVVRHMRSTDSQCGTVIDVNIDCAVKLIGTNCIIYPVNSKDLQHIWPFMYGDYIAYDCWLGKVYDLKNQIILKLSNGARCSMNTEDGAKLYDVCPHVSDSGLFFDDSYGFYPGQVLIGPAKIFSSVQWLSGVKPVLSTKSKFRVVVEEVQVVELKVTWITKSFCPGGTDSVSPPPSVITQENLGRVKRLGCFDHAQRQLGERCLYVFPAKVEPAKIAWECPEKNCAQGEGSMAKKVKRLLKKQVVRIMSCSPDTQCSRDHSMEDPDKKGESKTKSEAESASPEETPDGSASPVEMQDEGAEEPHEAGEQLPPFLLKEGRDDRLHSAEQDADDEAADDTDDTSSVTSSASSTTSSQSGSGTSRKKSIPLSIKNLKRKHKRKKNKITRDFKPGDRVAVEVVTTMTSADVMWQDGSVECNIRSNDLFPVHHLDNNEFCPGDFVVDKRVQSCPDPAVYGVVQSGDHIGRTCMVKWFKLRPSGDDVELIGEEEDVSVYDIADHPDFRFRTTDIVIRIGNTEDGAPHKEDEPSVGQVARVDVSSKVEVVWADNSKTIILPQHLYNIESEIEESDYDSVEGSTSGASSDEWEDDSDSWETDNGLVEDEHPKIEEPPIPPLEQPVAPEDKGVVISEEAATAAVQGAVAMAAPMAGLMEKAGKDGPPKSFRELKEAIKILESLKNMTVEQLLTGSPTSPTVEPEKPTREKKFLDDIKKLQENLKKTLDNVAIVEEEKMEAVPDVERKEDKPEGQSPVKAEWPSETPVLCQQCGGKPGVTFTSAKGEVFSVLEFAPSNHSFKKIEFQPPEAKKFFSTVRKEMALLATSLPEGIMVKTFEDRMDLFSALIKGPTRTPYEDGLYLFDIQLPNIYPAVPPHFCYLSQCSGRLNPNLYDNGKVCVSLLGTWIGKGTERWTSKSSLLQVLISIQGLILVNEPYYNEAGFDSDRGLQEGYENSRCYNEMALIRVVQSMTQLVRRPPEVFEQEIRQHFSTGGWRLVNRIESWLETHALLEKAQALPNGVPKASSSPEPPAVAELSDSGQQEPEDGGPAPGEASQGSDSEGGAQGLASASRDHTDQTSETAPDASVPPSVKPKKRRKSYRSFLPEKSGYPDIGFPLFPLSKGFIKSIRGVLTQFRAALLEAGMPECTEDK

Columns and labels:
[1] = target: T1, LARP7-STREP (UniProt Q4G0J3); experiment: co-IP; STREP-tagged bait transfected in HEK 293T or HeLa; lysate on Streptactin Superflow resin at 4 C; wash 50 mM Tris-HCl pH 8.0, 150 mM NaCl, 2 mM MgCl2, 0.5% Triton X-100; endogenous preys by western blot; with or without Tat co-transfection; with 100 uM DRB or DMSO for 1 hr before lysis
T1 sequence: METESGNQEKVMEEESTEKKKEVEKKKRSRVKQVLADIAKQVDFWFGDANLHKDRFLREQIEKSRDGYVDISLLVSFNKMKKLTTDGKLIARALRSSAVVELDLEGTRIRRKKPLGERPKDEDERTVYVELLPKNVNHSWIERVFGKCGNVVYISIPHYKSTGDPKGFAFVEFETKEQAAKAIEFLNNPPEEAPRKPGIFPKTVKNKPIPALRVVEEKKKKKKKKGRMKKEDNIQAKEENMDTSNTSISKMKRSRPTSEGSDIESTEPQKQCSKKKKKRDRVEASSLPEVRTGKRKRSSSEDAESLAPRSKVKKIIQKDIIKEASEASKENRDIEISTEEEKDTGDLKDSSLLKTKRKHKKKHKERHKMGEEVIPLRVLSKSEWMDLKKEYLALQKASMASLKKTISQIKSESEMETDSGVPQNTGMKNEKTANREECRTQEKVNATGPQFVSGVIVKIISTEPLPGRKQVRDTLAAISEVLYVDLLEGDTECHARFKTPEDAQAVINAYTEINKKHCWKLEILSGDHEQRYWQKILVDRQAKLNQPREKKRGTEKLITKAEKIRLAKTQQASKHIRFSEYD

[2] = target: HIV-1 HXB2 Tat-STREP (HIV-1 HXB2) (UniProt P04608); experiment: as above
[3] = target: HIV-1 HXB2 Tat-STREP (HIV-1 HXB2) (UniProt P04608); experiment: co-IP; tandem affinity purification from HEK 293T transfected with Tat-STREP and UBE2O-FLAG: STREP IP, then the elution on FLAG-M2 resin overnight at 4 C; endogenous HEXIM1 by western blot

Substance | binding [1] | binding [2] | binding [3]
HEXIM1 (endogenous) (from UniProt O94992 1-359) | binds | binds | binds
P-TEFb (endogenous; cyclin T1 and CDK9) (from UniProt O60563 1-726; P50750 1-372) (complex) |  | binds | 
UBE2O-FLAG (from UniProt Q9C0C9 1-1292) (enzyme) |  |  | binds
